Screening data, single-dose tests

Chains of the proteins cited; added tags and fusions are not shown. Residues count along the entry.
UniProt Q4DA54, 1-478: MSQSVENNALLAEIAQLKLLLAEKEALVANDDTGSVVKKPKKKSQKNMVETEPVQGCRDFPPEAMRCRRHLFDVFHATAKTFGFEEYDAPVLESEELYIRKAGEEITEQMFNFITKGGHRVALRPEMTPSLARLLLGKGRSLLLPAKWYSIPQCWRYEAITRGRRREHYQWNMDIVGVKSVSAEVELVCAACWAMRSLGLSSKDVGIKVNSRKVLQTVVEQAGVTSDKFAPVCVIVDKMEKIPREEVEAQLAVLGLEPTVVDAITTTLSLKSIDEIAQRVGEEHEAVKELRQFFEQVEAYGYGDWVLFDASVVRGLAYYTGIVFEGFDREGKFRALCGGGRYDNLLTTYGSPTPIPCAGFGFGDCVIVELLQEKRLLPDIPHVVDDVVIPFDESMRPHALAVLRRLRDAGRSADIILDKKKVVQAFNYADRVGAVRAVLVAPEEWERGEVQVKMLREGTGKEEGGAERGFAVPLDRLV
UniProt P9WPC5, whole entry: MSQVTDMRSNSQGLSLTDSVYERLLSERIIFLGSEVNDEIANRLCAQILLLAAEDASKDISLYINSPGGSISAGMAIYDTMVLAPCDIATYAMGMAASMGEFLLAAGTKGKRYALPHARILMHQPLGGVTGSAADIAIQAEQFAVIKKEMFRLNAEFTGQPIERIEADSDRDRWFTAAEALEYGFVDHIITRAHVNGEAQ
UniProt P9WPC3, whole entry partner: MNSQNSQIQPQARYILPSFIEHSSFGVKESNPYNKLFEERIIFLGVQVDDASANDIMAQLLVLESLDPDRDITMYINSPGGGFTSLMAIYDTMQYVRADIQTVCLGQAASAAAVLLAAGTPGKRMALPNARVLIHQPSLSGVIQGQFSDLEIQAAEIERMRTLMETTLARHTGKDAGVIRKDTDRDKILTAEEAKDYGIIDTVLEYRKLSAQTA
UniProt Q8IDJ8, 1-583: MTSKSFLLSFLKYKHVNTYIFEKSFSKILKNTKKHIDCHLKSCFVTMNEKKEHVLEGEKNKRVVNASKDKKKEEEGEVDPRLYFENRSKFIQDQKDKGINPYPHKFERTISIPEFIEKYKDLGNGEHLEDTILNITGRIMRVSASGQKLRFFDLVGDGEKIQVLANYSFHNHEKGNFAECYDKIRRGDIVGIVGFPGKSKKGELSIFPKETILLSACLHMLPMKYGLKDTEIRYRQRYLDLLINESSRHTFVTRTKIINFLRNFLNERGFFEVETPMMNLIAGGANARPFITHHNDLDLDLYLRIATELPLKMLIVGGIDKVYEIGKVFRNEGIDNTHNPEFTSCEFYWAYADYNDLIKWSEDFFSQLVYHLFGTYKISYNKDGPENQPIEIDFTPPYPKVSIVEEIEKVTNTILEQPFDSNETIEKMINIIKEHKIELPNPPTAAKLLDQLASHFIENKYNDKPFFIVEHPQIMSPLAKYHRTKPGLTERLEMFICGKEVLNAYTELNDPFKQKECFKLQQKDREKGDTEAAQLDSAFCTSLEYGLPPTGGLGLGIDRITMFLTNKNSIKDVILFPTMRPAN

Leishmania in macrophages: 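Cell assay of Leishmania donovani living inside macrophages; the read-out is not stated. Compounds at 30 µM. Direction is inferred from retests: higher values go with stronger inhibition. About 69,000 compounds were tested under these conditions; 1.5% (about 1,000) showed 50% or more at least once.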
TcHisRS: 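Histidine-tRNA ligase, Trypanosoma cruzi CL Brener (UniProt Q4DA54). Enzyme assay of histidyl-tRNA synthetase; the read-out is not stated. Concentration: 30 µM. The record gives no direction; compounds that gave an IC50 in retests scored well above the rest, so higher reads as stronger inhibition. Of about 69,000 compounds tested this way, about 31 (0.045%) reached 50% or more in at least one test.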
ClpP1P2: 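Protease assay of ClpP1P2, read by the AMC dye that it sets free. Target: ClpP1P2, Mycobacterium tuberculosis (UniProt P9WPC5 and UniProt P9WPC3). Tested at 50 µM. Higher reads as stronger inhibition, judged from the few compounds that gave an IC50. Most other retested compounds had strongly negative values. About 69,000 compounds were tested under these conditions; 0.015% (about 10) showed 50% or more at least once.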
Toxoplasma: 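Assay of Toxoplasma gondii numbers, read through their beta-galactosidase reporter with a colour substrate. Tested at 10 µM. The record gives no direction; the compounds picked for IC50 retests had high values, so higher reads as fewer parasites. Size under these conditions: about 67,000 compounds, about 260 of them at 50% or above in at least one test.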
PfKRS1: 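Lysine-tRNA ligase, Plasmodium falciparum 3D7 (UniProt Q8IDJ8). Enzyme assay of the cytosolic lysyl-tRNA synthetase in 384-well plates, read by luminescence. Compounds at 30 µM. Higher reads as stronger inhibition, judged from the few compounds that gave an IC50. About 69,000 compounds were tested under these conditions; 0.071% (about 49) showed 50% or more at least once.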

The filed quantity is “Percent Effect” (%). The record does not define 0% and 100%; most values in the screen are far below 50% and negative numbers occur (in some assays of this library far below -100). The compounds are a random part of those screened.

CC(C)(CCS(C)(=O)=O)CNC(=O)NC1CCCC1(C)C (stereo unspecified) gave Leishmania in macrophages: -15.11%; TcHisRS: 5.155%; ClpP1P2: -4.706%; Toxoplasma: 1.797%; PfKRS1: 2.732%. O=C(NC1CC1)[C@H]1CC[C@@H]2[C@@H](CCN2Cc2ccsc2)O1 gave TcHisRS: 4.902%; ClpP1P2: 3.204%; PfKRS1: 1.274%. Result for CCc1c(C)nc(C)nc1N1C[C@@H](CN(C)C)[C@@H](CO)C1 was Leishmania in macrophages: 54.47%; TcHisRS: 1.117%; ClpP1P2: -7.598%; Toxoplasma: 5.35%; PfKRS1: -1.201%. With CN(C)C(=O)COC1COC2(CCN(CC3CC3)CC2)C1 (stereo unspecified) the screen gave TcHisRS: 6.186%; ClpP1P2: -7.921%; PfKRS1: 5.76%. Result for CCc1cnc(CCNC(=O)N2CCCC(c3ncc[nH]3)C2)s1 (stereo unspecified) was Leishmania in macrophages: -6.223%; TcHisRS: 6.404%; ClpP1P2: -19.07%; Toxoplasma: 7.088%; PfKRS1: 8.81%. With Fc1cnc(N2CCCn3c(nnc3Cn3cccc3)C2)nc1.O=C(O)C(F)(F)F the screen gave Leishmania in macrophages: 32.67%; Toxoplasma: 5.423%. With NS(=O)(=O)CCN(CCc1cccc(F)c1)C1CCCC1 the screen gave Leishmania in macrophages: -27.91%; TcHisRS: 10%; ClpP1P2: 11.28%; Toxoplasma: 11.75%; PfKRS1: -1.794%.

Result for O=C(CSCC1CC1)N1CCCC(c2nccn2Cc2ccncc2)C1 (stereo unspecified) was Leishmania in macrophages: 23.74%; TcHisRS: 0.813%; ClpP1P2: -2.482%; Toxoplasma: -2.675%; PfKRS1: 2.122%. Result for Cc1cc(N(C)C)nc(C2CCCN2)n1 (stereo unspecified) was TcHisRS: -0.3759%; ClpP1P2: -9.267%; PfKRS1: 3.631%. For CCNc1ccnc(N2CCCC(CCOC)(C(=O)O)C2)n1 (stereo unspecified) the result was Leishmania in macrophages: 7.762%; TcHisRS: 0.6494%; ClpP1P2: -0.3712%; Toxoplasma: -1.766%; PfKRS1: -1.399%. For O=C1N(c2ccsc2)CCC12CCCN(CC1CC1)C2 (stereo unspecified) the result was TcHisRS: 9.184%; ClpP1P2: -4.211%; PfKRS1: 5.407%. Result for CC(C)C(C)NC(=O)CNc1cc2c(cc1Cl)NC(=O)CO2 (stereo unspecified) was Leishmania in macrophages: -3.472%; TcHisRS: -4.867%; ClpP1P2: 6.326%; Toxoplasma: 11.22%; PfKRS1: 6.335%. Cc1occc1C(=O)N1CCCC2(CCN(CCN3CCCC3)C2=O)C1.O=C(O)C(F)(F)F (stereo unspecified) gave Leishmania in macrophages: 38.65%; Toxoplasma: 8.765%. For Cc1cc(O)c(OCC(=O)Nc2nccs2)cn1 the result was Leishmania in macrophages: -25.36%; TcHisRS: 2.484%; ClpP1P2: -8.318%; Toxoplasma: -12.67%; PfKRS1: 3.069%.

Result for Cc1occc1C(=O)NCC(=O)N(C)CCCOc1ccccc1 was Leishmania in macrophages: 1.562%; TcHisRS: 4.217%; ClpP1P2: -8.879%; Toxoplasma: 2.871%; PfKRS1: 3.554%. CC(C)n1[nH]c(=O)c2c1NC(=O)CSC2c1cccc(OCC(N)=O)c1 (stereo unspecified) gave Leishmania in macrophages: 10.14%; TcHisRS: 0.5917%; ClpP1P2: 0.37%; Toxoplasma: -1.706%; PfKRS1: 4.505%. Cc1csc([C@@H]2C[C@@H]3CCN(C(=O)c4cccn4C)C[C@H]3O2)n1 read TcHisRS: 0%; ClpP1P2: -4.367%; PfKRS1: -2.097%. Cc1cccc(C(C(=O)NC(C)(C)CN2CCCC2)N(C)C)c1 (stereo unspecified) read Leishmania in macrophages: 64.22%; TcHisRS: 11.44%; ClpP1P2: 11.76%; Toxoplasma: 3.565%; PfKRS1: 3.561%. For C[C@@H]1CN(C2CCN(c3ccccc3F)CC2)C[C@]1(C)O the result was Leishmania in macrophages: 31.62%; TcHisRS: 4.706%; ClpP1P2: -12.07%; Toxoplasma: 12.36%; PfKRS1: -1.085%. CCCc1cc(C(=O)N2C[C@H]3CCC[C@@]3(CO)C2)[nH]n1 read TcHisRS: 1.63%; ClpP1P2: 13.73%; PfKRS1: 11.55%. CN(Cc1cn2c(n1)CN(CC1CCOC1)CC2)Cc1ccco1 (stereo unspecified) read TcHisRS: 7.143%; ClpP1P2: 15.25%; PfKRS1: -1.568%.

CN1CCc2cc(C(=O)N(C)C)c(NCC3CC3)nc2CC1 gave TcHisRS: 9.346%; ClpP1P2: -1.54%; PfKRS1: 5.348%.

The last 2 entries again:

CN(Cc1cn2c(n1)CN(CC1CCOC1)CC2)Cc1ccco1 (stereo unspecified) read TcHisRS: 7.143%; ClpP1P2: 15.25%; PfKRS1: -1.568%.
CN1CCc2cc(C(=O)N(C)C)c(NCC3CC3)nc2CC1 read TcHisRS: 9.346%; ClpP1P2: -1.54%; PfKRS1: 5.348%.

Measurements from “University of Dundee, Small-Polar-MMV Screening Library” (2021), ChEMBL document CHEMBL3988442.